The assay has as its target cynomolgus PSMA (ACRO) (cynomolgus). The assay can be described thus: SPR Biacore, 37 C. In general terms: SPR reads the build-up and loss of mass on a sensor chip optically.

No constants are given. Whether binding was seen depends on the method and setting. Some results given as binding are weak or reduced against the parent protein; the word gives no strength.

B1: 10J5-chimeric J591 (antibody, V domains shown)
VH: EVQLQQSGPELVKPGTSVRISCKTSGYTFTEYTIHWVKQSHGKSLEWIGNINPNNGGTTYNQKFEDKATLTVDKSSSTAYMELRSLTSEDSAVYYCAAGWNFDYWGQGTTLTVSS
VL: DIVMTQSHKFMSTSVGDRVSIICKASQDVGTAVDWYQQKPGQSPKLLIYWASTRHTGVPDRFTGSGSGTDFTLTITNVQSEDLADYFCQQYNSYPLTFGAGTMLDLKR
Consider B1, for which the binding entry was “binds”.

The values are drawn from US20230374150A1.
